For assay [1], the target named is T1, MST1, endogenous in MEFs (mouse (endogenous in MEFs)) (UniProt Q9JI11).
T1 sequence: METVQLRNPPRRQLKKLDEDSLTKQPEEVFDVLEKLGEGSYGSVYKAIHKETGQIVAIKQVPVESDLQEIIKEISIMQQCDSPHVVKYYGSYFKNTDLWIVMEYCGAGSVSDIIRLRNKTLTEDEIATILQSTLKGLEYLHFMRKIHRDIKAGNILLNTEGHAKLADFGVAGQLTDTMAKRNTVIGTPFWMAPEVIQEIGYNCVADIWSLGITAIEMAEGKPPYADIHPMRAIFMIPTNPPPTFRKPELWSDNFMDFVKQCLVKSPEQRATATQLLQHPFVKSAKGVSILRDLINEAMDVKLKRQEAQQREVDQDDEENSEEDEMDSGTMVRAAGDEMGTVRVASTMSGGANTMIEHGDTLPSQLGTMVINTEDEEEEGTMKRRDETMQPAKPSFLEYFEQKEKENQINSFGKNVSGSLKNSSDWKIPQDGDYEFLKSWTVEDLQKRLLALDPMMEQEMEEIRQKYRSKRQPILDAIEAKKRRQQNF
Briefly: co-IP; KSR1+/+ MEF lysates in Buffer A; protein A-Sepharose with anti-MST1, anti-LATS1 or anti-YAP antibodies, 3 h at 4 °C; rabbit IgG as control; in Fig. 8 cells serum-starved for 16 h, then EGF or vehicle for 5 min.

By UniProt entry, the sequences of proteins in these tests, tags left out.
UniProt P46937: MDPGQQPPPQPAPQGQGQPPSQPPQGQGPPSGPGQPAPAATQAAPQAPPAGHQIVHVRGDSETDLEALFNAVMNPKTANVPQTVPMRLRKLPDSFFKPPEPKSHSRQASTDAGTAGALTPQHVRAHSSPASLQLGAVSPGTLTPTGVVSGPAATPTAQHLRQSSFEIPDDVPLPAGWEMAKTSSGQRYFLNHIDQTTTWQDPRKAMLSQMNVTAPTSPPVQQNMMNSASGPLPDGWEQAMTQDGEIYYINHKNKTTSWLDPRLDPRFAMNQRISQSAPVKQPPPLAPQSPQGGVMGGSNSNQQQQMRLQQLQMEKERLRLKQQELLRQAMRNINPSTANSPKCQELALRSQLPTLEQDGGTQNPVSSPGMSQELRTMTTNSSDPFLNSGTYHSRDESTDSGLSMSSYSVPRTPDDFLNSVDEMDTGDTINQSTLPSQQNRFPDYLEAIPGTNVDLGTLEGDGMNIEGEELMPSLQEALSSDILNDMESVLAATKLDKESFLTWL
UniProt P46938: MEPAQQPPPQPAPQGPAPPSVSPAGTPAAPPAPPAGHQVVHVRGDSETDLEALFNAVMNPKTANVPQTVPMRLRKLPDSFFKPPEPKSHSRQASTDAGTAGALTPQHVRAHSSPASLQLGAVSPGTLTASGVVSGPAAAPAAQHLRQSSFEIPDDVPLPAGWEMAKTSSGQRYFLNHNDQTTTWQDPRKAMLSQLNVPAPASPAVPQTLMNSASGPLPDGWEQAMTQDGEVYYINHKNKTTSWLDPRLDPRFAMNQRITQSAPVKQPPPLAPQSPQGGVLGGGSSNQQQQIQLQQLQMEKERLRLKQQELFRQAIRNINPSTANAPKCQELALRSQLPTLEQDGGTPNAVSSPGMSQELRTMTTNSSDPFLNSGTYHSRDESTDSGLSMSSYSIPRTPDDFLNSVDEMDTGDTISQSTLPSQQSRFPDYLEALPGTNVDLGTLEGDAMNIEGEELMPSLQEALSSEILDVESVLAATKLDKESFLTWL

Assay [2] concerns the target T2, Glutathione S-transferase (GST)-tagged MST1 (UniProt Q13043).
T2 sequence: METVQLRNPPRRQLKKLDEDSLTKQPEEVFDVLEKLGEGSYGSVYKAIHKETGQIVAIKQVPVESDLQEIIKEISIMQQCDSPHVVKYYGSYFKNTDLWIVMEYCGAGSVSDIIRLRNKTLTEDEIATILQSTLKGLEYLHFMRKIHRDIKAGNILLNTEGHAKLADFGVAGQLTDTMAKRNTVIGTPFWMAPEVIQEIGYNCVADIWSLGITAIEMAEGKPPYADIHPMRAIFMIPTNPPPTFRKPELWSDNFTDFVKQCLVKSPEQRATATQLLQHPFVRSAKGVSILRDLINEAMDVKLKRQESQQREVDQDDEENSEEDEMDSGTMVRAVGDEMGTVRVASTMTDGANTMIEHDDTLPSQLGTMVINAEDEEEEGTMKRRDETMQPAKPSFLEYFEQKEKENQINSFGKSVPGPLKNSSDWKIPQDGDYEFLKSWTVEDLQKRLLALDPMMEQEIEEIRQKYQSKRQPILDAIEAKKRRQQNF
As to the kind of experiment: pull-down; TNT-made KSR1 incubated with glutathione-Sepharose beads coated with the GST protein for 3 h at 4 °C in Buffer A (150 mM NaCl, 50 mM Tris-HCl, pH 7.4, 1% Triton X-100); five washes; Western blot with anti-KSR1 and anti-GST; only the target purified. (In general: In western blotting, separated proteins are transferred to a membrane and probed.)

In assay [3] the target is T3, MST1, endogenous in MCF-7 cells (human (endogenous in MCF-7)) (UniProt Q13043).
T3 sequence: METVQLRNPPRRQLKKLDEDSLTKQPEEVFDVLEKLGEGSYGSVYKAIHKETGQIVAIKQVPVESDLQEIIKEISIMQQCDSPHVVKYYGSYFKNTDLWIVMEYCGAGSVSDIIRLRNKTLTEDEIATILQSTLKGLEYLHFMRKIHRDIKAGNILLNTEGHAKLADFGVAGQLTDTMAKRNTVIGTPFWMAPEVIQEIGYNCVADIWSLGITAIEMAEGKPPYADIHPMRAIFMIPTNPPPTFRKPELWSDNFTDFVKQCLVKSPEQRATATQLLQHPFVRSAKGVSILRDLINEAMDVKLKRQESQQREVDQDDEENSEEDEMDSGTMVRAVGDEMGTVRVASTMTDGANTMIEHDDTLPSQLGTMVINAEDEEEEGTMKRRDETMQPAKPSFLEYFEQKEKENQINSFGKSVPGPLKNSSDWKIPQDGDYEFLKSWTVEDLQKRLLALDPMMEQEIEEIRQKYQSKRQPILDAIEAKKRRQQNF
Briefly: co-IP; MCF-7 lysates, endogenous proteins; immunoprecipitation of MST1; non-specific IgG as control.

Assay [4] addresses YAP, endogenous in HEK293T cells (human (endogenous in HEK293T)) (UniProt P46937). As to the kind of experiment: co-IP; HEK293T cells transfected with GFP-tagged KSR1 or GFP alone for 72 h; lysates immunoprecipitated with anti-YAP antibodies or rabbit IgG.

These are yes or no findings as the source states them, for the method shown. Binding seen in cells or lysates may run through a third protein. Some entries that bind do so weakly or less than the wild type. For some of these results: Tags and fused reporters may be left off the sequences shown.

In the case of “YAP, endogenous in MEFs (from UniProt P46938 1-488)”, the binding entry in assay [1] was “binds”.

B1: Kinase Suppressor of Ras 1 (KSR1), produced by in vitro transcription and translation (TNT) (protein, UniProt Q8IVT5 1-923)
chain: MDRAALRAAAMGEKKEGGGGGDAAAAEGGAGAAASRALQQCGQLQKLIDISIGSLRGLRTKCAVSNDLTQQEIRTLEAKLVRYICKQRQCKLSVAPGERTPELNSYPRFSDWLYTFNVRPEVVQEIPRDLTLDALLEMNEAKVKETLRRCGASGDECGRLQYALTCLRKVTGLGGEHKEDSSWSSLDARRESGSGPSTDTLSAASLPWPPGSSQLGRAGNSAQGPRSISVSALPASDSPTPSFSEGLSDTCIPLHASGRLTPRALHSFITPPTTPQLRRHTKLKPPRTPPPPSRKVFQLLPSFPTLTRSKSHESQLGNRIDDVSSMRFDLSHGSPQMVRRDIGLSVTHRFSTKSWLSQVCHVCQKSMIFGVKCKHCRLKCHNKCTKEAPACRISFLPLTRLRRTESVPSDINNPVDRAAEPHFGTLPKALTKKEHPPAMNHLDSSSNPSSTTSSTPSSPAPFPTSSNPSSATTPPNPSPGQRDSRFNFPAAYFIHHRQQFIFPVPSAGHCWKCLLIAESLKENAFNISAFAHAAPLPEAADGTRLDDQPKADVLEAHEAEAEEPEAGKSEAEDDEDEVDDLPSSRRPWRGPISRKASQTSVYLQEWDIPFEQVELGEPIGQGRWGRVHRGRWHGEVAIRLLEMDGHNQDHLKLFKKEVMNYRQTRHENVVLFMGACMNPPHLAIITSFCKGRTLHSFVRDPKTSLDINKTRQIAQEIIKGMGYLHAKGIVHKDLKSKNVFYDNGKVVITDFGLFGISGVVREGRRENQLKLSHDWLCYLAPEIVREMTPGKDEDQLPFSKAADVYAFGTVWYELQARDWPLKNQAAEASIWQIGSGEGMKRVLTSVSLGKEVSEILSACWAFDLQERPSFSLLMDMLEKLPKLNRRLSHPGHFWKSADINSSKVVPRFERFGLGVLESSNPKM
As to B1, in assay [2], the binding entry was “binds”.

B2: KSR1, endogenous in MCF-7 cells (protein, UniProt Q8IVT5 1-923)
chain: MDRAALRAAAMGEKKEGGGGGDAAAAEGGAGAAASRALQQCGQLQKLIDISIGSLRGLRTKCAVSNDLTQQEIRTLEAKLVRYICKQRQCKLSVAPGERTPELNSYPRFSDWLYTFNVRPEVVQEIPRDLTLDALLEMNEAKVKETLRRCGASGDECGRLQYALTCLRKVTGLGGEHKEDSSWSSLDARRESGSGPSTDTLSAASLPWPPGSSQLGRAGNSAQGPRSISVSALPASDSPTPSFSEGLSDTCIPLHASGRLTPRALHSFITPPTTPQLRRHTKLKPPRTPPPPSRKVFQLLPSFPTLTRSKSHESQLGNRIDDVSSMRFDLSHGSPQMVRRDIGLSVTHRFSTKSWLSQVCHVCQKSMIFGVKCKHCRLKCHNKCTKEAPACRISFLPLTRLRRTESVPSDINNPVDRAAEPHFGTLPKALTKKEHPPAMNHLDSSSNPSSTTSSTPSSPAPFPTSSNPSSATTPPNPSPGQRDSRFNFPAAYFIHHRQQFIFPVPSAGHCWKCLLIAESLKENAFNISAFAHAAPLPEAADGTRLDDQPKADVLEAHEAEAEEPEAGKSEAEDDEDEVDDLPSSRRPWRGPISRKASQTSVYLQEWDIPFEQVELGEPIGQGRWGRVHRGRWHGEVAIRLLEMDGHNQDHLKLFKKEVMNYRQTRHENVVLFMGACMNPPHLAIITSFCKGRTLHSFVRDPKTSLDINKTRQIAQEIIKGMGYLHAKGIVHKDLKSKNVFYDNGKVVITDFGLFGISGVVREGRRENQLKLSHDWLCYLAPEIVREMTPGKDEDQLPFSKAADVYAFGTVWYELQARDWPLKNQAAEASIWQIGSGEGMKRVLTSVSLGKEVSEILSACWAFDLQERPSFSLLMDMLEKLPKLNRRLSHPGHFWKSADINSSKVVPRFERFGLGVLESSNPKM
As to B2, the binding entry in assay [3] is “binds”.

B3: GFP-tagged full-length KSR1 (protein, UniProt Q8IVT5 1-923)
chain: MDRAALRAAAMGEKKEGGGGGDAAAAEGGAGAAASRALQQCGQLQKLIDISIGSLRGLRTKCAVSNDLTQQEIRTLEAKLVRYICKQRQCKLSVAPGERTPELNSYPRFSDWLYTFNVRPEVVQEIPRDLTLDALLEMNEAKVKETLRRCGASGDECGRLQYALTCLRKVTGLGGEHKEDSSWSSLDARRESGSGPSTDTLSAASLPWPPGSSQLGRAGNSAQGPRSISVSALPASDSPTPSFSEGLSDTCIPLHASGRLTPRALHSFITPPTTPQLRRHTKLKPPRTPPPPSRKVFQLLPSFPTLTRSKSHESQLGNRIDDVSSMRFDLSHGSPQMVRRDIGLSVTHRFSTKSWLSQVCHVCQKSMIFGVKCKHCRLKCHNKCTKEAPACRISFLPLTRLRRTESVPSDINNPVDRAAEPHFGTLPKALTKKEHPPAMNHLDSSSNPSSTTSSTPSSPAPFPTSSNPSSATTPPNPSPGQRDSRFNFPAAYFIHHRQQFIFPVPSAGHCWKCLLIAESLKENAFNISAFAHAAPLPEAADGTRLDDQPKADVLEAHEAEAEEPEAGKSEAEDDEDEVDDLPSSRRPWRGPISRKASQTSVYLQEWDIPFEQVELGEPIGQGRWGRVHRGRWHGEVAIRLLEMDGHNQDHLKLFKKEVMNYRQTRHENVVLFMGACMNPPHLAIITSFCKGRTLHSFVRDPKTSLDINKTRQIAQEIIKGMGYLHAKGIVHKDLKSKNVFYDNGKVVITDFGLFGISGVVREGRRENQLKLSHDWLCYLAPEIVREMTPGKDEDQLPFSKAADVYAFGTVWYELQARDWPLKNQAAEASIWQIGSGEGMKRVLTSVSLGKEVSEILSACWAFDLQERPSFSLLMDMLEKLPKLNRRLSHPGHFWKSADINSSKVVPRFERFGLGVLESSNPKM
Turning to B3, the binding result in assay [4] is “binds”.

For the origin of these results see paper PMC12669712.
